Source: patent US10799605B2 (3B PHARMACEUTICALS GMBH, priority 2014, dated 2020)
The structures given here were assigned with low confidence; some may be wrong.

By UniProt entry, the sequences of proteins in these tests, tags left out.
UniProt P30989, whole entry: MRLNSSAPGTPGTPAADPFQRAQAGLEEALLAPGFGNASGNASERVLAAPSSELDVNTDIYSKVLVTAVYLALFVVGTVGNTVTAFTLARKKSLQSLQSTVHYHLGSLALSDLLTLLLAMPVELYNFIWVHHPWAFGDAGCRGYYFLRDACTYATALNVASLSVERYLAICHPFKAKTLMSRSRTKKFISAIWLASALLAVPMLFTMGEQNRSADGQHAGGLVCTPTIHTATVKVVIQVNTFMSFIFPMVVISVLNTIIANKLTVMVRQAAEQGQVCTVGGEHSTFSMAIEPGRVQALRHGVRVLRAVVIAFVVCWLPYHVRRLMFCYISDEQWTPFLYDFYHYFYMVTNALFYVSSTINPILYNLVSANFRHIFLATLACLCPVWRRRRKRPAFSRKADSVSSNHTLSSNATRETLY

How the values were obtained:
NTR1 [1] = target: T1, NTR1 (Homo sapiens (Human), UniProt P30989); assay: Functional Ca2+ mobilisation assay (example part I); assay type: cell-based
NTR1 [2] = target: T1, NTR1; assay: Radioligand binding assay NTR1 (example part I); details: 0.05 nM 125I-(Tyr3-neurotensin), 60 min at 4° C.

Structure (SMILES): COc1cccc(OC)c1-c1cc(C(=O)NC2(C(=O)O)C3CC4CC(C3)CC2C4)nn1-c1ccc(C(=O)N(C)CCCN(C)CCCN(C)C(=O)CCC(=O)NCCCOCCOCCOCCCNC(=O)CCCC[C@@H]2SC[C@@H]3NC(=O)N[C@@H]32)cc1C(C)C (stereo partly drawn)
- EC50 (NTR1 [1]; read-out: Agonistic Effect EC50, agonist assay, * bell-shaped curves, EC50 from ascending part of the curve): > 50000 nM
- IC50 (NTR1 [1]; read-out: Antagonistic Effect IC50, antagonist assay, 30 min pre-incubation, EC80-concentration of agonist): 10 nM
- IC50 (NTR1 [2]): 1.2 nM
